# Experimental data reported in patent publication US20030118983A1, “Rapid screening procedure for inflammation mediators” (priority 2000, published 2003).
# At least one compound was matched to its structure with a doubt left.
# Tested on: PMNs
# Assay: Heme protein effect on DCFH oxidation in unstimulated, LPS and TNFα-, and PMA-stimulated PMNs, with or without NOS inhibitors, SOD or antioxidants
# Format: cell-based, human
# Details: PMA-stimulated PMNs with arginine
# Procedure: DCFH-loaded PMNs were incubated with and without N-methyl-L-arginine (L-NMMA; 5 mM; Calbiochem, San Diego, Calif.) and heme proteins (0.3-1000 μg/mL) at 37 ° C. for 10 minutes. […] In unstimulated and LPS and TNFα -stimulated PMNs, the treatments were oxyMb, or oxyMb+L-NMMA (5 mM). […] RBC cell membranes were ruptured using a micro-ultrasonic cell disrupter, Kontes, Janke and Kukel Gmbh and CO. (Stauten, Germany). […] OxyMb was prepared by mixing excess sodium dithionite with Mb for 1 h and inorganic sulfur compounds were removed by dialyzing in HBSS buffer for 3 h. Percent iron in the ferric state in non-dithionite treated oxyMb or oxyHb was not assessed. […] […] cross-linked Hb was a gift from Walter Reed Army Institute of Research. […] Also, various concentrations of bovine liver Cu, Zn SOD (30-10,000 U/mL; 8-2640 μg/mL) and 30 μg/mL oxyMb were incubated with PMA-stimulated PMNs pretreated with and without L-NMMA. Flow cytometric measurements of oxidant-induced DCF fluorescence were performed as described above.
structure (smiles),measurement,value
"C=CC1=C(C)/C(=C/c2[nH]c(Cc3[nH]c(/C=C4\NC(=O)C(C)=C4C=C)c(C)c3CCC(=O)O)c(CCC(=O)O)c2C)NC1=O [Bilirubin, reference compound]",effect on DCFH oxidation,did not affect DCFH oxidation
